Test results reported in patent US10670612B2 (Saladax Biomedical, Inc., priority 2010, dated 2020).

Experiment: peptide made by a vendor
Settings: whole synthesis, HPLC

| Sequence | purity (crude or final not stated) [%] |
| --- | --- |
| DAEFRHDSGYEVHHQKDREPNRIGLMVGGVVIA (SEQ ID NO: 8) | 97 |
| DAEFRHDSGYEVHMVGGVVIA (SEQ ID NO: 2) (Modified Peptide) | 90 |
| DAEFRHDSGYEVHHQKEERPIGLMVGGVVIA (SEQ ID NO: 6) (Modified Peptide) | 96 |
| DAEFRHDSGYEVHHQKIGLMVGGVVIA (SEQ ID NO: 4) | 98 |
